Measurements reported in PubChem BioAssay AID652272 (Drosophila RNAi Screening Center, 2013)
Screen: 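Genome-wide knock-down search for components of Hedgehog signalling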 (primary screen). Cells: Drosophila clone 8 (Cl8) cells. Reagents: long dsRNA against Drosophila genes. Read-out: 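Firefly light from a Hedgehog-responsive ptc promoter reporter and Renilla reference light, both read on a plate reader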. Direction: firefly Hh reporter signal: higher = more ptc reporter light; Renilla reference signal: higher = more Renilla control light. Rule for the call: 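Called a hit if the two-replicate mean z-score lies below -2 or above +3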. Calls: active = hit: reporter lowered or raised; inactive = not a hit.
The deposit covers about 21,000 reagents; shown is an unselected part of those with a known target gene and a result. In the full data, 503 (2.4%) are marked active. 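Raw plate light values, not normalised; calls rest on replicate z-scores that were not deposited; hits include reporter decreases as well as increases.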 Reagents against one gene are numbered here. Not given: the amount of reagent, the time to read-out.

CG14410 | firefly Hh reporter signal, replicate 1 = 97201; firefly Hh reporter signal, replicate 2 = 2.83e5; Renilla reference signal, replicate 1 = 2946; Renilla reference signal, replicate 2 = 10449; outcome = inactive
jef | firefly Hh reporter signal, replicate 1 = 1.15e5; firefly Hh reporter signal, replicate 2 = 49542; Renilla reference signal, replicate 1 = 3236; Renilla reference signal, replicate 2 = 4089; outcome = inactive
tj | firefly Hh reporter signal, replicate 1 = 64349; firefly Hh reporter signal, replicate 2 = 41827; Renilla reference signal, replicate 1 = 1704; Renilla reference signal, replicate 2 = 3904; outcome = inactive
SLO2 #1 | firefly Hh reporter signal, replicate 1 = 68323; firefly Hh reporter signal, replicate 2 = 15288; Renilla reference signal, replicate 1 = 1991; Renilla reference signal, replicate 2 = 1473; outcome = inactive
SLO2 #2 | firefly Hh reporter signal, replicate 1 = 65121; firefly Hh reporter signal, replicate 2 = 50117; Renilla reference signal, replicate 1 = 1261; Renilla reference signal, replicate 2 = 3876; outcome = inactive
SLO2 #3 | firefly Hh reporter signal, replicate 1 = 75735; firefly Hh reporter signal, replicate 2 = 53035; Renilla reference signal, replicate 1 = 1336; Renilla reference signal, replicate 2 = 4296; outcome = inactive
SLO2 #4 | firefly Hh reporter signal, replicate 1 = 95298; firefly Hh reporter signal, replicate 2 = 63361; Renilla reference signal, replicate 1 = 2194; Renilla reference signal, replicate 2 = 4673; outcome = inactive
SLO2 #5 | firefly Hh reporter signal, replicate 1 = 33552; firefly Hh reporter signal, replicate 2 = 26713; Renilla reference signal, replicate 1 = 835; Renilla reference signal, replicate 2 = 2124; outcome = inactive
Rok | firefly Hh reporter signal, replicate 1 = 97155; firefly Hh reporter signal, replicate 2 = 83929; Renilla reference signal, replicate 1 = 1760; Renilla reference signal, replicate 2 = 1997; outcome = inactive
Rab39 | firefly Hh reporter signal, replicate 1 = 77078; firefly Hh reporter signal, replicate 2 = 2.22e5; Renilla reference signal, replicate 1 = 1884; Renilla reference signal, replicate 2 = 9260; outcome = inactive
in | firefly Hh reporter signal, replicate 1 = 92467; firefly Hh reporter signal, replicate 2 = 92981; Renilla reference signal, replicate 1 = 3399; Renilla reference signal, replicate 2 = 2524; outcome = inactive
Cdc2rk | firefly Hh reporter signal, replicate 1 = 81427; firefly Hh reporter signal, replicate 2 = 42544; Renilla reference signal, replicate 1 = 1892; Renilla reference signal, replicate 2 = 3623; outcome = inactive
